## Library screen at single concentrations

The filed quantity is “Percent Effect” (%).
How 0% and 100% were set is not recorded. Most values in the screen are low, and negative values occur.
The compounds are a random part of those screened.
Two or more numbers in one place are separate tests of the same structure; such repeats can differ widely.

Mtb cholesterol medium: 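Whole-cell growth test on Mycobacterium tuberculosis, read after 4 days in a medium based on cholesterol and the lipid DPPC; the read-out is not stated. Concentration: 50 µM. Higher reads as more growth inhibition (inferred: compounds with an IC50 in retests scored well above the rest). Of about 69,000 compounds tested this way, about 370 (0.54%) reached 50% or more in at least one test.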
Mtb glucose medium: 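Growth of Mycobacterium tuberculosis over 3 days (7H9 medium with glucose and tyloxapol); the read-out is not stated. Compounds at 50 µM. Higher reads as more growth inhibition (inferred: compounds with an IC50 in retests scored well above the rest). About 69,000 compounds were tested under these conditions; 1.1% (about 760) showed 50% or more at least once.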

- Cc1nc2cc(O)nn2c(C)c1CCC(=O)N(C)Cc1ccccc1 | Mtb cholesterol medium: 15.4%; Mtb glucose medium: -4.545%
- CN(C(=O)Nc1cccc(C#N)c1)C1CCN(c2ccccn2)CC1 | Mtb cholesterol medium: -8.616%; Mtb glucose medium: 25.83%
- Cc1ncsc1-c1cc(C(=O)NCCO)ccn1 | Mtb cholesterol medium: -6.413% & -3.138%; Mtb glucose medium: 7.94%
- CC(C)CCN1C2(CCN(Cc3nccs3)C2)c2ccccc2S1(=O)=O.O=C(O)C(F)(F)F (stereo not shown) | Mtb cholesterol medium: 10.62% & -2.379%; Mtb glucose medium: -2.458%
- CC(C)Nc1ncnc2c1CCN(C(=O)Cc1ccccn1)CC2.O=C(O)C(F)(F)F | Mtb cholesterol medium: -16.49%; Mtb glucose medium: -18.27%
- CS(=O)(=O)N1CC2(CCCN(C3COC3)C2)Cc2ccccc21 (stereo not shown) | Mtb cholesterol medium: -9.91%; Mtb glucose medium: -2.742%
- CC(Cn1cccn1)NCc1nc(-c2ccsc2)no1 (stereo not shown) | Mtb cholesterol medium: -31.87%; Mtb glucose medium: 18.62%
- CCOc1ccc2c(c1)C=C(C(=O)NC(C)Cn1cccn1)CO2 (stereo not shown) | Mtb cholesterol medium: -25.38%; Mtb glucose medium: -18.12%
- COc1ccc(C(=O)Nc2n[nH]c(C3CCCO3)n2)cc1 (stereo not shown) | Mtb cholesterol medium: -13.11%; Mtb glucose medium: 4.512% & -11.68%
- CCOc1ccc(N2CCC(C(O)c3ccccc3)CC2)nn1 (stereo not shown) | Mtb cholesterol medium: -11.01%; Mtb glucose medium: -13.77%
- Cc1nc(-n2nc(C3CC3)cc2NC(=O)C(C)C)[nH]c(=O)c1C | Mtb cholesterol medium: 25.34%; Mtb glucose medium: 61.68%
- [H][C@]12CN(Cc3scnc3C)C[C@@]1([H])OCCN(S(C)(=O)=O)C2 | Mtb cholesterol medium: -19.36%; Mtb glucose medium: -4.98%
- CCOc1ccccc1CNCC1CCN(CC(C)O)CC1 (stereo not shown) | Mtb cholesterol medium: 12.07%; Mtb glucose medium: 14.37%
- O=C(c1ccc(-c2nc[nH]n2)cc1)N1CCOC(C(F)(F)F)C1 (stereo not shown) | Mtb cholesterol medium: -6.817%; Mtb glucose medium: 8.133%
- O=C(Nc1cc(-c2ccccc2)on1)N1CC[C@H](O)C1 | Mtb cholesterol medium: -11.98%; Mtb glucose medium: 9.155%
- CS(=O)(=O)CCN1CCC2(CCCN(C3CCOCC3)C2=O)C1 (stereo not shown) | Mtb cholesterol medium: 2.298%; Mtb glucose medium: 8.449%
- Cc1nn(C)c(C)c1S(=O)(=O)N(C)Cc1nn(C)c(Cl)c1Cl | Mtb cholesterol medium: -1.609%; Mtb glucose medium: 20.14%
- N#Cc1ccc(Cl)cc1NCC1CCOC1 (stereo not shown) | Mtb cholesterol medium: -19.18%; Mtb glucose medium: 4.091%
- CCc1nc(CN2CCCN(c3cnc4ccccc4n3)CC2)no1 | Mtb cholesterol medium: 26.51%; Mtb glucose medium: 47.28% & 31.37%
- CCN(CC)Cc1cn2c(n1)CN(Cc1c(C)noc1C)CC2.O=C(O)C(F)(F)F.O=C(O)C(F)(F)F | Mtb cholesterol medium: -5.497%; Mtb glucose medium: 18.11%
- CCc1nnc(SCc2nonc2C)n1C | Mtb cholesterol medium: 33.01%; Mtb glucose medium: -30.44% & 4.157%
- Cn1c(C(=O)N2CCC(C(=O)N3CCCC3)CC2)c(Cl)c2ccccc21 | Mtb cholesterol medium: -0.6316%; Mtb glucose medium: -8.018%
- CC(C)Oc1cccc(F)c1C(C(=O)O)N1CCCC1 (stereo not shown) | Mtb cholesterol medium: 8.451%; Mtb glucose medium: 3.567%
- COCc1ncc(CN(Cc2ccco2)C(C)C(C)C)cn1 (stereo not shown) | Mtb cholesterol medium: 0.5%; Mtb glucose medium: 18.98%
- Cc1ccc(CN2CCc3onc(C(=O)NC(C)C)c3C2)o1.O=C(O)C(F)(F)F | Mtb cholesterol medium: -8.641%; Mtb glucose medium: 17.26%
- O=C(c1cccc2cccnc12)N1CC[C@@]2(CCCO2)[C@@H](O)C1 | Mtb cholesterol medium: -21.84%; Mtb glucose medium: -49.8%
- Oc1c(F)cc(CNc2cccc(-c3nnc[nH]3)c2)cc1F | Mtb cholesterol medium: -1.567%; Mtb glucose medium: 17.11% & -2.345%
- Cc1ccc(N2CCCC(NCc3cccc4c3OCO4)C2)nn1 (stereo not shown) | Mtb cholesterol medium: -19.82%; Mtb glucose medium: -10.88%
- CCCC(=O)NC(C(=O)OC)c1cc(F)ccc1F (stereo not shown) | Mtb cholesterol medium: -3.778%; Mtb glucose medium: -6.877%

Repeated from the top, 2 entries:

{"compound": "Cc1nc2cc(O)nn2c(C)c1CCC(=O)N(C)Cc1ccccc1", "Mtb cholesterol medium": 15.4, "Mtb glucose medium": -4.545}
{"compound": "CN(C(=O)Nc1cccc(C#N)c1)C1CCN(c2ccccn2)CC1", "Mtb cholesterol medium": -8.616, "Mtb glucose medium": 25.83}

Source: ChEMBL document CHEMBL3988442, “University of Dundee, Small-Polar-MMV Screening Library” (2021).